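Growth of Mycobacterium tuberculosis over 3 days (7H9 medium with glucose and tyloxapol); the read-out is not stated. Concentration: 50 µM. Higher reads as more growth inhibition (inferred: compounds with an IC50 in retests scored well above the rest). Size under these conditions: about 69,000 compounds, about 760 of them at 50% or above in at least one test.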

Values are the deposited “Percent Effect”, in %.
The record does not define 0% and 100%; most values in the screen are far below 50% and negative numbers occur (in some assays of this library far below -100).
The compounds are a random part of those screened.
Two or more numbers in one place are separate tests of the same structure; such repeats can differ widely.

| compound | effect |
|---|---|
| `Cc1nn(C)c(N(C)C)c1CNCc1nnc2n1CCCCC2.Cl` | -2.01 |
| `CCOc1ccc(C(C)Nc2ncnc3c2CCNC3)cc1OCC` (centres unmarked) | 3.333 |
| `CCc1nccn1C1CCCN(C(=O)CCCNc2ncccn2)C1` (centres unmarked) | -10.84 |
| `[H][C@]12CC[C@]([H])(CN(C(=O)Cn3c(C)cc(C)nc3=O)C1)N(CC=C(C)C)C2` | 10.91 |
| `Cc1ccccc1-c1cc(NC(=O)CC(C)C)n(CCO)n1` | -2.927 & -1.951 |
| `CC(C)C(=O)NCc1cccc(N2CCCCC2=O)c1` | 21.41 |
| `CC[C@@H](CO)NC(=O)c1cccc(CCC(C)(C)O)c1` | -0.9367 & -22.37 |
| `O=C(O)C(F)(F)F.[H][C@@]12COC[C@]1(COCc1cccnc1)CN(C(=O)c1ccccc1C)C2` | -8.168 & -5.91 |
| `[H][C@@]12CCN(C(=O)Cc3cccs3)C[C@]1([H])OCCNC2=O` | 15.36 |
| `CN1CC2(CCN(C(=O)Cn3ncc4ccccc4c3=O)CC2)OC1=O` | -4.48 |
| `Cc1cccc(-c2noc(CN3CCCC3Cn3cccn3)n2)c1` (centres unmarked) | 22.98 |
| `Cc1nc(N2CC[C@@H](NC(=O)c3cnccn3)[C@H](O)C2)c2ccsc2n1` | -19.64 |
| `[H][C@]12CCN(C(N)=O)[C@@]1([H])CC[C@H](COCc1csc(C)n1)O2` | 32.04 |
| `O=C(NCCC1CN(Cc2c[nH]cn2)CCO1)Nc1ccccc1` (centres unmarked) | 13.53 |
| `CCCc1cc(C(=O)N2C[C@H](O)[C@@H](N3CCCC3)C2)ccn1` | 20.06 |
| `O=C(O)C(F)(F)F.[H][C@]12CN(C)C[C@@]1(C(=O)O)CCCN(C(=O)NCc1cccc(F)c1)C2` | -63.94 & -11.13 |
| `Cc1cccc(=O)n1CCCNc1ncnc2c1CCNCC2` | 33.57 |
| `CC(CNC(=O)CCn1cncn1)N1CCc2ccccc21` (centres unmarked) | 28.38 |
| `Cc1nc(CN2CCCC2Cn2cccn2)nc2ccccc12` (centres unmarked) | -28.45 & 23.24 |
| `Cc1ccc2nc(C)cc(C(=O)NCc3csc(N(C)C)n3)c2c1` | 20.77 |
| `Cc1cc(CN2CCN(S(C)(=O)=O)CC(C(=O)N(C)C)C2)no1` (centres unmarked) | 14.74 |
| `CC(C)c1nc(CS(=O)(=O)Cc2noc(C3CC3)n2)cs1` | 10.62 |
| `O=C(NCc1ccccc1)c1nnc2ccc(N3CCOCC3)cc2n1` | -34.22 |
| `COC(=O)N1CCCCC1C(=O)N1CCN(c2ncccc2C)CC1` (centres unmarked) | -24.67 & 5.653 |
| `CC(C)N(CC(N)=O)Cc1csc(C(C)(C)C)n1` | -21.91 |
| `COc1ccc2c(c1)CC(NCCCn1nc(C)nc1C)CC2` (centres unmarked) | -6.576 & 2.116 |
| `CSc1ccccc1C(=O)NCCC(O)c1ccco1` (centres unmarked) | -26.45 & -5.565 |
| `CC(C)c1nc(C2CCCN2CCN2CCCCC2)no1` (centres unmarked) | -1.204 |
| `CC(C)C[C@H](NC(=O)Cc1csc(-c2cccc(Cl)c2)n1)C(=O)O` | -1.521 |
| `Cc1csc(CN2CCC[C@]3(C[C@@H](OCC4CC4)CO3)C2)n1.O=C(O)C(F)(F)F` | -8.768 |
| `Cn1c(=O)ccn(CC(=O)N2CCCC(n3cccn3)C2)c1=O` (centres unmarked) | 1.358 |
| `N#CCc1ccc(OCC(=O)NS(=O)(=O)c2ccc(Br)s2)cc1` | 6.364 & -7.21 |
| `CC(C(=O)Nc1ncccn1)N1CCC(n2ccnc2)CC1` (centres unmarked) | -17.99 & -2.417 |
| `Cc1cc(C2CCCN2S(=O)(=O)c2cnn(C)c2)on1` (centres unmarked) | -9.858 |
| `CCN1CCCn2c(nc(CNC(=O)c3ccsc3)cc2=O)C1` | -19.54 |
| `[H][C@@]12CCN(C(=O)c3cc(C)on3)C[C@@]1([H])O[C@@H](c1ccncn1)C2` | -34.64 |
| `[H][C@]12CC[C@]([H])(CN(C(=O)C3CCC3)C1)N(S(=O)(=O)c1cccnc1)C2` | -27.42 |
| `CCOc1ncccc1CNC(=O)N1CCC(n2cncn2)CC1` | 15.69 |
| `Cc1ccc(CCNC(=O)NC2CCN(CC(F)(F)F)C2=O)cn1` (centres unmarked) | -30.92 |
| `O=C(NCC(O)COc1cccc(F)c1)C1(c2ccc(F)cc2)CC1` (centres unmarked) | 16.77 |
| `CN(C)C(=O)CCNC(=O)Nc1sc2ccccc2c1Cl` | 0.7258 |
| `COc1ccc(C(CO)NC(=O)Nc2cccc(C(C)=O)c2)cc1` (centres unmarked) | -26.82 |
| `CN(Cc1nnc(C2CC2)n1C)C1CCN(CCc2ccccc2)C1` (centres unmarked) | 32.56 |
| `CCC(C(=O)NCc1cccnc1)N(c1cccc(C)c1)S(C)(=O)=O` (centres unmarked) | 24.89 |
| `CN1CC(=O)N(c2cnn(C)c2)CC12CCN(Cc1nccn1C)C2.O=C(O)C(F)(F)F.O=C(O)C(F)(F)F` (centres unmarked) | -9.628 |
| `Cc1nc(C)n(CC2CCCN(Cc3nnc(C4CC4)o3)C2)n1` (centres unmarked) | 8.75 |
| `CC[C@H]1N(CC2CCOCC2)CCC[C@]12CCC(=O)N2.O=C(O)C(F)(F)F` | -7.592 & -19.68 |
| `O=C(C1CCCCN1Cc1nc(-c2ccco2)no1)N1CCCC1` (centres unmarked) | -25.36 |
| `COc1ccc(-n2ccc(C(=O)NCCN3CCCCCC3)n2)cc1` | 44.29 |
| `Cc1ccccc1-n1nc(C)c(CN(C)C(C)Cc2ccccn2)c1C.O=C(O)CC(O)(CC(=O)O)C(=O)O` (centres unmarked) | 3.705 |
| `Cc1cc(C)cc(-c2ccc(CC3(C(=O)O)CCOCC3)cc2)c1` | -32.24 |
| `CC(NC(=O)N1CCc2ccccc2C1)c1nncn1C` (centres unmarked) | -13.1 & -3.186 |
| `CC(C)(C)n1ncc2c1NC(=O)CC2c1ccccc1` (centres unmarked) | 8.502 |
| `Cc1n[nH]cc1CNC1CCN(c2ccccc2)CC1.Cl` | -6.661 |
| `COc1ccc(-c2cc(C[C@@H]3C[C@H](N(C)C)C3(C)C)no2)cc1` | 11.48 & -3.36 |
| `Oc1ccccc1-c1n[nH]c(C2CC2)n1` | -36.92 |
| `O=C(O)C(F)(F)F.O=C(O)C(F)(F)F.[H][C@@]12CCCO[C@]1([H])[C@H](N(C)C(C)C)CN(Cc1cc(C)on1)C2` | -5.441 & -13.25 |
| `O=S1(=O)c2cnccc2OC(COc2ccccc2)CN1CC1CC1` (centres unmarked) | 16.12 |
| `Cc1cccc(NC(=O)CN2C(=O)CC(C)(C)c3ccccc32)n1` | 6.457 |
| `Cn1nc2c(cc1=O)CN(c1ncnc3ccsc13)CC2` | -25.29 |
| `[H][C@]12CC[C@]([H])(CN(C(=O)N(C)C)C1)N(C(=O)c1cccnc1SC)C2` | -0.6282 |
| `CC(CN1CCOCC1)OC(=O)c1ccccc1I.Cl` (centres unmarked) | -5.384 |
| `Cc1[nH]nc(CCC(=O)NCC2CCCN(C3CCCC3)C2)c1C` (centres unmarked) | 19.51 |
| `Cc1cc(C)n(C2CCCN(C(=O)CCOc3cccc(F)c3)C2)n1` (centres unmarked) | -14.45 |
| `Cc1nnc(C2CCN(C(=O)c3ccc4[nH]ccc4c3)CC2)s1` | -28.23 & 4.505 |
| `N#Cc1cc2c(nc1O)CCCCC2` | -4.469 |
| `CN(Cc1nc(-c2ccccc2)no1)Cc1cnc(N2CCOCC2)s1` | 7.769 & 11.6 |
| `O=C(O)C(F)(F)F.[H][C@]12CC[C@@]3(N=C(CC)N(CC)C3=O)[C@@]1([H])CN(Cc1ccccc1F)C2` | -24.74 |
| `COc1ccc(OC)c(CNC2CCCN(c3cccnn3)C2)c1` (centres unmarked) | -5.681 & -1.354 |
| `OC1(CNCCc2csc(-c3ncccn3)n2)CCNC1` (centres unmarked) | 1.185 |
| `Cc1csc(CCCNC(C)CC(=O)Nc2cccc(C)c2C)n1` (centres unmarked) | 13.34 |
| `[H][C@]12CC[C@]([H])(CN(C(=O)c3cccnc3)C1)N(Cc1cc(C)ccc1C)C2` | -38.5 |
| `CC(C)(C)c1nc(CN2CCOC(Cn3cccn3)C2)no1` (centres unmarked) | 4.151 |
| `CC(NC(=O)Cc1cc2c(cc1Cl)OCCO2)c1ccncn1` (centres unmarked) | -11.98 |
| `CCCS(=O)(=O)N1CCc2nc(N3CCOCC3)nc(N(C)C)c2C1` | -25.63 & -3.269 |
| `Cn1cc(CN2CCCn3cnc(COCC4CC4)c3C2)cn1` | 18.64 |
| `Cc1nc(C2CCN(C(=O)COC(C)C)CC2)cc(N2CCOCC2)n1` | -20.95 |
| `COCCN1CCOCC2(CCCN(Cc3ccc(C)o3)C2)C1.O=C(O)C(F)(F)F.O=C(O)C(F)(F)F` (centres unmarked) | 3.479 |
| `CCN1Cc2c(C(=O)NC)ncn2-c2ccccc2S1(=O)=O` | 4.25 |

For reference, 5 entries once more:

compound	effect
CC(C)(C)n1ncc2c1NC(=O)CC2c1ccccc1 (centres unmarked)	8.502
O=C(O)C(F)(F)F.[H][C@@]12COC[C@]1(COCc1cccnc1)CN(C(=O)c1ccccc1C)C2	-8.168 & -5.91
COc1ccc(C(CO)NC(=O)Nc2cccc(C(C)=O)c2)cc1 (centres unmarked)	-26.82
CN(C)C(=O)CCNC(=O)Nc1sc2ccccc2c1Cl	0.7258
Cc1ccc(CCNC(=O)NC2CCN(CC(F)(F)F)C2=O)cn1 (centres unmarked)	-30.92

Source: ChEMBL document CHEMBL3988442, “University of Dundee, Small-Polar-MMV Screening Library” (2021).